In the supplement of paper PMC6078165:
± gives the standard deviation of the averaged measurements. The reference is the same well before dosing, and untreated signal decays as well.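 Fibroblast labels denote human fibroblasts, mainly primary ones from uterus (C12385, HUF), lung (H6013), bone (Hs27A), adrenal (HADF) and skin (WS1), plus mammary HMF and breast cancer-associated Hs343T. Cancer cells are basal-like or mesenchymal-like triple-negative breast cancer lines. A hit is a response shift exceeding 3x replicate standard deviation. The tissue of the other fibroblasts is not given here.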

Test system: BT20
Assay: relative JC-1 red fluorescence (viability) vs pre-drug, coculture with fibroblast (fraction); higher = more viable cancer cells
Details: 10 µM
Experimental: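 JC-1 labelled TNBC cells cocultured 1:1 (1,500 cells each) with CellTrace Violet stained primary or stromal fibroblasts in 384-well plates in FluoroBrite medium, treated with one of 42 anticancer drugs at 0.1, 1, 10 or 100 uM. JC-1 red fluorescence (mitochondrial integrity in cancer cells only) was read by plate reader every 8 h for 72 h. Values are normalised to each well's pre-drug value. The stock of one drug was tenfold lower, so its dose labels may be too high.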

CC(=O)c1c(C)c2cnc(Nc3ccc(N4CCNCC4)cn3)nc2n(C2CCCC2)c1=O [Palbociclib]
relative JC-1 red fluorescence
Details	8 h	16 h	24 h	32 h	40 h	48 h	56 h	64 h	72 h
coculture fibroblast: C12385	0.9024 ± 0.0044	0.862 ± 0.0099	0.905 ± 0.11	0.851 ± 0.11	0.805 ± 0.093	0.786 ± 0.09	0.769 ± 0.091	0.741 ± 0.086	0.716 ± 0.08
coculture fibroblast: H6013	0.852 ± 0.032	0.771 ± 0.071	0.938 ± 0.051	0.974 ± 0.029	0.932 ± 0.028	0.921 ± 0.02	0.928 ± 0.014	0.9062 ± 0.0018	0.8973 ± 0.0037
coculture fibroblast: H6019	0.915 ± 0.048	0.909 ± 0.11	0.8151 ± 0.0038	0.811 ± 0.069	0.733 ± 0.015	0.797 ± 0.083	0.709 ± 0.014	0.775 ± 0.1	0.768 ± 0.11
coculture fibroblast: H6076	0.744 ± 0.051	0.9561 ± 0.0066	0.8818 ± 0.0039	0.867 ± 0.0097	0.837 ± 0.018	0.803 ± 0.022	0.787 ± 0.018	0.786 ± 0.02	0.766 ± 0.019
coculture fibroblast: H6231	0.787 ± 0.07	0.952 ± 0.038	0.857 ± 0.044	0.807 ± 0.042	0.772 ± 0.028	0.724 ± 0.022	0.686 ± 0.019	0.662 ± 0.022	0.637 ± 0.026
coculture fibroblast: HADF	0.717 ± 0.0028	0.805 ± 0.047	0.975 ± 0.025	0.9707 ± 0.0079	0.936 ± 0.04	0.905 ± 0.04	0.899 ± 0.047	0.881 ± 0.052	0.846 ± 0.036
coculture fibroblast: HCFa	0.86 ± 0.2	0.911 ± 0.029	0.848 ± 0.039	0.8384 ± 0.0031	0.776 ± 0.039	0.797 ± 0.034	0.7406 ± 0.0012	0.777 ± 0.075	0.725 ± 0.048
coculture fibroblast: HCPF	0.767 ± 0.073	0.9334 ± 0.0021	0.8657 ± 0.00096	0.8214 ± 0.0063	0.784 ± 0.0019	0.734 ± 0.0083	0.6939 ± 0.0063	0.678 ± 0.0069	0.641 ± 0.013
coculture fibroblast: HHSteC	0.792 ± 0.13	0.9821 ± 0.0025	0.9607 ± 0.0082	0.8986 ± 0.0065	0.826 ± 0.013	0.801 ± 0.021	0.7702 ± 0.0058	0.756 ± 0.014	0.7241 ± 0.0064
coculture fibroblast: HMF	0.825 ± 0.042	0.958 ± 0.018	0.851 ± 0.016	0.797 ± 0.017	0.752 ± 0.012	0.7049 ± 0.0065	0.6661 ± 0.0043	0.635 ± 0.017	0.6 ± 0.0084
coculture fibroblast: HPFa	0.809 ± 0.15	0.874 ± 0.13	0.868 ± 0.11	0.892 ± 0.024	0.9 ± 0.1	0.874 ± 0.11	0.846 ± 0.12	0.828 ± 0.12	0.788 ± 0.12
coculture fibroblast: HUF	0.947 ± 0.016	0.889 ± 0.013	0.85 ± 0.04	0.78 ± 0.061	0.743 ± 0.073	0.708 ± 0.072	0.68 ± 0.07	0.663 ± 0.071	0.636 ± 0.072
coculture fibroblast: Hs5	0.899 ± 0.11	0.951 ± 0.057	0.902 ± 0.03	0.857 ± 0.022	0.819 ± 0.01	0.789 ± 0.011	0.7555 ± 0.0013	0.7297 ± 0.0035	0.702 ± 0.01
coculture fibroblast: Hs27A	0.905 ± 0.016	0.86 ± 0.068	0.772 ± 0.056	0.81 ± 0.082	0.83 ± 0.053	0.89 ± 0.13	0.831 ± 0.19	0.899 ± 0.043	0.834 ± 0.051
coculture fibroblast: Hs343T	0.804 ± 0.039	0.979 ± 0.02	0.883 ± 0.035	0.809 ± 0.03	0.742 ± 0.022	0.689 ± 0.022	0.621 ± 0.026	0.596 ± 0.026	0.553 ± 0.023
coculture fibroblast: WS1	0.894 ± 0.022	0.846 ± 0.024	0.8304 ± 0.0038	0.788 ± 0.015	0.755 ± 0.022	0.736 ± 0.031	0.718 ± 0.038	0.694 ± 0.047	0.675 ± 0.049
